# US6303568A, “Therapeutic antimicrobial polypeptides, their use and methods for preparation” (Helix Biomedix, Inc., priority 1996, dated 2001)
# At least one peptide structure holds a part that was inferred or is arguable (an end, a ring closure or a residue). Ends that are not written are not given here.
# Key:
# E. coli E/2/64 = experiment: In vitro exposure and plate count, E. coli (Example 3); type: cell-based
# Procedure: A known number of viable microorganisms were exposed to a known concentration of the antimicrobial agent for a given time period. Following exposure, the undiluted or diluted microorganisms were plated on solid growth media, e.g., agar plates. The plates were incubated and numbers of organisms determined by making plate counts. Comparisons are then made with the non-treated bacteria for evidence of inhibition, mortality, or both. The following Examples give detailed experimental procedures and results for several microorganisms and antimicrobial agents. […] The E. coli is collected in late log phase growth at which the majority of cells are in growth phase at 18-24 hours. […] The mixtures were incubated at room temperature for 1 hour, and then at 37° C. for 30 minutes. The mixtures were diluted to 10^-1 or 10^-3 with serial dilutions at 7 drops per dilution (10 microliters per drop), plated on agar growth media, which is a tryptose agar. The plates were incubated for 3 days at 37° C. Plate counts were then made and the results given below.
# Plasmodium falciparum = experiment: Uptake of tritiated hypoxanthine by Plasmodium falciparum in human red blood cells (Example 7); type: cell-based; details: 24 hours
# Trypanosoma cruzi [1] = experiment: Vero cell infection with pre-treated Trypanosomes (Example 5); details: Trypanosomes soaked in 100 micromolar solution before infection, 1:1 ratio; 15 percent infection in non-treated control
# Trypanosoma cruzi [2] = experiment: Amastigote counts in Vero cells infected with Trypanosoma cruzi (Example 6); type: cell-based; details: 100 micromolar
substance,measurement,setting,value
MPKWKVFKKIEKVGRNIRNGIVKAGPAIAVLGEAKAL-NH2 [Cecropin C-37],Effect on E. coli (growth),E. coli E/2/64; 5 × 10^-6 molar,no growth
same,Effect on E. coli (growth),E. coli E/2/64; lower concentrations of 1 nanomolar and 1 micromolar,positive E. coli growth
same,Uptake of Tritiated Hypoxanthine,"Plasmodium falciparum; Percent Infection 0.0625, concentration 1 (micromoles)",315 Counts per Minute × 10^-1
same,Uptake of Tritiated Hypoxanthine,"Plasmodium falciparum; Percent Infection 0.0625, concentration 20 (micromoles)",295 Counts per Minute × 10^-1
same,Uptake of Tritiated Hypoxanthine,"Plasmodium falciparum; Percent Infection 0.0625, concentration 200 (micromoles)",20 Counts per Minute × 10^-1
same,Uptake of Tritiated Hypoxanthine,"Plasmodium falciparum; Percent Infection 0.125, concentration 1 (micromoles)",470 Counts per Minute × 10^-1
same,Uptake of Tritiated Hypoxanthine,"Plasmodium falciparum; Percent Infection 0.125, concentration 20 (micromoles)",435 Counts per Minute × 10^-1
same,Uptake of Tritiated Hypoxanthine,"Plasmodium falciparum; Percent Infection 0.125, concentration 200 (micromoles)",30 Counts per Minute × 10^-1
same,Uptake of Tritiated Hypoxanthine,"Plasmodium falciparum; Percent Infection 0.25, concentration 1 (micromoles)",1053 Counts per Minute × 10^-1
same,Uptake of Tritiated Hypoxanthine,"Plasmodium falciparum; Percent Infection 0.25, concentration 20 (micromoles)",946 Counts per Minute × 10^-1
same,Uptake of Tritiated Hypoxanthine,"Plasmodium falciparum; Percent Infection 0.25, concentration 200 (micromoles)",40 Counts per Minute × 10^-1
same,Uptake of Tritiated Hypoxanthine,"Plasmodium falciparum; Percent Infection 0.5, concentration 1 (micromoles)",2350 Counts per Minute × 10^-1
same,Uptake of Tritiated Hypoxanthine,"Plasmodium falciparum; Percent Infection 0.5, concentration 20 (micromoles)",1925 Counts per Minute × 10^-1
same,Uptake of Tritiated Hypoxanthine,"Plasmodium falciparum; Percent Infection 0.5, concentration 200 (micromoles)",60 Counts per Minute × 10^-1
same,infection of Vero cells with Trypomastigotes,Trypanosoma cruzi [1],no infection
same,% of Cells Infected w/ Amastigotes,Trypanosoma cruzi [2]; 48 hours post-infection,14%
same,Average No. of Amastigotes per Infected Cell,Trypanosoma cruzi [2]; 48 hours post-infection,3
same,No. of Amastigotes per 100 Mammalian Cells,Trypanosoma cruzi [2]; 48 hours post-infection,15
same,% of Cells Infected w/ Amastigotes,Trypanosoma cruzi [2]; 72 hours post-infection,2.5%
same,Average No. of Amastigotes per Infected Cell,Trypanosoma cruzi [2]; 72 hours post-infection,3
same,No. of Amastigotes per 100 Mammalian Cells,Trypanosoma cruzi [2]; 72 hours post-infection,5
same,% of Cells Infected w/ Amastigotes,Trypanosoma cruzi [2]; 96 hours post-infection,0%
same,Average No. of Amastigotes per Infected Cell,Trypanosoma cruzi [2]; 96 hours post-infection,1.5
same,No. of Amastigotes per 100 Mammalian Cells,Trypanosoma cruzi [2]; 96 hours post-infection,0
